Assay results taken from paper PMC9712689.
No constants are given. Whether binding was seen depends on the method and setting. For some assays here: A result given as binding can be weak or reduced; the word gives no strength.

Experiments:
[1] = molecular target: T1, RlpA-SPOR (P. aeruginosa PAO1) (UniProt Q9X6V6); assay: SPR; both purified
T1 sequence: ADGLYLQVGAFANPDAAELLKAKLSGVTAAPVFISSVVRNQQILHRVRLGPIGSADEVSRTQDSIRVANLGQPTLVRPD

[2] = molecular target: RlpA-Δ32 (P. aeruginosa PAO1) (UniProt Q9X6V6); assay: SPR; both purified
[3] = molecular target: RlpA-Δ32, fluorescently labeled (P. aeruginosa PAO1) (UniProt Q9X6V6); assay: MST; both purified

Substance | binding [1] | binding [2] | binding [3]
PA4063 (from UniProt Q9HWW5) | no binding |  | 
LptE (from UniProt Q9HX32) |  | binds | 
MltA (from UniProt Q9I4B6) (enzyme) |  | binds | 
AlgO (from UniProt Q9HYY3) |  | no binding | no binding
